Source: PubChem BioAssay AID1224828 (NIAID, 2016)

Purpose: 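Knock-downs that increase or decrease LPS-induced p65 nuclear translocation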 (primary screen)
Cell system: mouse RAW264.7 G9 macrophage reporter cells (GFP-p65, Tnf promoter-mCherry)
Reagent: siRNA pool against mouse genes, 100 nM
Timing: 2 days siRNA transfection, then 40 min LPS before fixation
Treatment: LPS (Salmonella minnesota R595) at 10 ng/ml
Measured: 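Microscopy ratio of nuclear to perinuclear-ring GFP-p65 signal, scaled to the plate median; gene score is the average of two replicate robust z-scores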
Reading the numbers: p65 translocation robust z-score: higher = more nuclear NF-kappaB p65 after LPS than the plate median; nuclear/cytoplasmic p65 ratio: higher = more nuclear NF-kappaB p65
Hit rule: 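Active if robust z is above 3.3 (negative regulators) or below -1.56, the Tlr4 control median (positive regulators); activity score 50 or more; control wells not called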
Calls: active = hit (p65 shift raised or lowered); inactive = no clear change
Shown is one part, drawn at random, of about 17,000 reagents tested. 762 of them (4.5%) count as active. 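Active calls include both raised and lowered p65 entry, mostly lowered; wells with fewer than 50 cells lack a z-score.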 Raw values are not corrected between plates. A number with no mark means an inactive call.

Gene	PubChem SID	p65 translocation robust z-score	nuclear/cytoplasmic p65 ratio, rep 1	nuclear/cytoplasmic p65 ratio, rep 2	low cell count flag
Nefm (neurofilament, medium polypeptide)	SID315468163	-0.72	1.73	1.43	enough cells to score
Ms4a6b (membrane-spanning 4-domains, subfamily A, member 6B)	SID315473896	0.47	1.53	1.38	enough cells to score
Pla2g4a (phospholipase A2, group IVA (cytosolic, calcium-dependent))	SID315468564	-1.65 (active)	1.26	1.2	enough cells to score
Ptbp3 (polypyrimidine tract binding protein 3)	SID315478772	1.3	1.63	1.34	enough cells to score
Loxl2 (lysyl oxidase-like 2)	SID315476086	2.37	2.04	1.93	enough cells to score
Cimip2a (ciliary microtubule inner protein 2A)	SID315473461		1.02	1.02	fewer than 50 cells per well; well left out of scoring
Or5t16 (olfactory receptor family 5 subfamily T member 16)	SID315480248	0.81	1.88	1.61	enough cells to score
Gnai2 (G protein subunit alpha i2)	SID315466943	-0.31	1.33	1.4	enough cells to score
Pgc (progastricsin (pepsinogen C))	SID315476849	0.21	1.32	1.27	enough cells to score
Cntnap1 (contactin associated protein-like 1)	SID315471041	1.1	1.67	1.47	enough cells to score
Vmn1r188 (vomeronasal 1 receptor 188)	SID315479918		1.42	1.22	fewer than 50 cells per well; well left out of scoring
Eif5 (eukaryotic translation initiation factor 5)	SID315478162	0.16	1.53	1.35	enough cells to score
Aldoa (aldolase A, fructose-bisphosphate)	SID315465387	0.1	1.66	1.61	enough cells to score
Efemp2	SID315471919	-0.27	1.47	1.29	enough cells to score
Slc17a9	SID315478680	0.31	1.69	1.82	enough cells to score
Arhgap32 (Rho GTPase activating protein 32)	SID315481625	0.4	1.53	1.39	enough cells to score
Prkcd (protein kinase C, delta)	SID315468541	-0.53	1.53	1.36	enough cells to score
Or4c120 (olfactory receptor family 4 subfamily C member 120)	SID315480520	0.1	1.77	1.51	enough cells to score
Dpp4 (dipeptidylpeptidase 4)	SID315466374	0.33	1.56	1.39	enough cells to score
Fv1 (Friend virus susceptibility 1)	SID315466767	-0.63	1.57	1.32	enough cells to score

Already shown: an excerpt of the list.
Gene	PubChem SID	p65 translocation robust z-score	nuclear/cytoplasmic p65 ratio, rep 1	nuclear/cytoplasmic p65 ratio, rep 2	low cell count flag
Aldoa (aldolase A, fructose-bisphosphate)	SID315465387	0.1	1.66	1.61	enough cells to score
Efemp2	SID315471919	-0.27	1.47	1.29	enough cells to score
Slc17a9	SID315478680	0.31	1.69	1.82	enough cells to score
Arhgap32 (Rho GTPase activating protein 32)	SID315481625	0.4	1.53	1.39	enough cells to score

Further reagents follow:
Gene	PubChem SID	p65 translocation robust z-score	nuclear/cytoplasmic p65 ratio, rep 1	nuclear/cytoplasmic p65 ratio, rep 2	low cell count flag
Arl1 (ADP-ribosylation factor-like 1)	SID315476430	1.46	1.73	1.8	enough cells to score
Asb14 (ankyrin repeat and SOCS box-containing 14)	SID315477163	-0.58	1.43	1.51	enough cells to score
Pglyrp3 (peptidoglycan recognition protein 3)	SID315479595	-0.62	1.35	1.18	enough cells to score
Cntfr (ciliary neurotrophic factor receptor)	SID315466038	0.7	1.47	1.55	enough cells to score
Chst3 (carbohydrate sulfotransferase 3)	SID315471054	0.56	1.73	1.82	enough cells to score
Slc7a7	SID315469314	-0.58	1.42	1.45	enough cells to score
Gjc3 (gap junction protein, gamma 3)	SID315477101	-0.42	1.54	1.4	enough cells to score
Or13p10 (olfactory receptor family 13 subfamily P member 10)	SID315468326	0.12	1.48	1.26	enough cells to score
Samt4 (spermatogenesis associated multipass transmembrane protein 4)	SID315475082	1.74	1.44	1.54	enough cells to score
Arrb1 (arrestin, beta 1)	SID315476840	0.69	1.59	1.7	enough cells to score
Nmbr (neuromedin B receptor)	SID315468189	2.09	1.81	1.89	enough cells to score
Wdfy1 (WD repeat and FYVE domain containing 1)	SID315473794	1.06	1.5	1.41	enough cells to score
Tyrobp (TYRO protein tyrosine kinase binding protein)	SID315469892		1.38	1.24	fewer than 50 cells per well; well left out of scoring
Mtx2 (metaxin 2)	SID315471055	0.38	1.85	1.65	enough cells to score
Rps6kc1 (ribosomal protein S6 kinase C1)	SID315481231	-2.11 (active)	1.23	1.53	enough cells to score
Aoc3 (amine oxidase, copper containing 3)	SID315465427	-1.05	1.48	1.49	enough cells to score
Aqp2 (aquaporin 2)	SID315465479	-0.62	1.5	1.55	enough cells to score
Ass1 (argininosuccinate synthetase 1)	SID315465528	-0.18	1.58	1.59	enough cells to score
Or9m2 (olfactory receptor family 9 subfamily M member 2)	SID315480295	-1.1	1.55	1.37	enough cells to score
Cnpy1 (canopy FGF signaling regulator 1)	SID315480874	-1.04	1.23	1.46	enough cells to score
Ppa1 (pyrophosphatase (inorganic) 1)	SID315473296	-1.3	1.41	1.26	enough cells to score
Sc5d (sterol-C5-desaturase)	SID315479238	-0.22	1.39	1.19	enough cells to score
Sulf1 (sulfatase 1)	SID315479519	1.08	1.58	1.34	enough cells to score
Snf8 (SNF8, ESCRT-II complex subunit, homolog (S. cerevisiae))	SID315470637	-0.42	1.44	1.79	enough cells to score
Ide (insulin degrading enzyme)	SID315467369	-0.52	1.25	1.42	enough cells to score
Pals1 (protein associated with LIN7 1, MAGUK family member)	SID315471407	0.52	1.87	1.67	enough cells to score
Tollip (toll interacting protein)	SID315471245	0.09	1.56	1.51	enough cells to score
Npm1 (nucleophosmin 1)	SID315468223		1.35	1.93	fewer than 50 cells per well; well left out of scoring
Setd7 (SET domain containing (lysine methyltransferase) 7)	SID315474698	-0.3	1.56	1.46	enough cells to score
Ywhab	SID315471227	-0.51	1.46	1.41	enough cells to score
Prkar2b (protein kinase, cAMP dependent regulatory, type II beta)	SID315468691	-0.09	1.47	1.36	enough cells to score
H2aj (H2J.A histone)	SID315478991	-0.52	1.44	1.29	enough cells to score
Hlf (HLF transcription factor, PAR bZIP family)	SID315478072	-0.67	1.61	1.38	enough cells to score
Eif4a2 (eukaryotic translation initiation factor 4A2)	SID315466475	-0.51	1.42	1.28	enough cells to score
Usp21 (ubiquitin specific peptidase 21)	SID315470776	-0.38	1.45	1.45	enough cells to score
Ly6g2 (lymphocyte antigen 6 family member G2)	SID315478269	-0.99	1.41	1.7	enough cells to score
Actr10 (ARP10 actin-related protein 10)	SID315471540		1.47	1.53	fewer than 50 cells per well; well left out of scoring
Trpc3	SID315469837	0.03	1.51	1.51	enough cells to score
Sec23a (SEC23 homolog A, COPII coat complex component)	SID315469160	0.28	1.48	1.26	enough cells to score
